Results are given in words; binding and its absence hold for the method and conditions named. Binding seen in cells or lysates may run through a third protein. These calls come from enrichment with a bait or labelling near it, and not all partners need be listed.
What was measured:
[1] = biological target: CD137 (4-1BB, TNFRSF9) (human (endogenous in primary CD8 T cells)) (UniProt Q07011); test: affinity purification with mass spectrometry; preactivated primary human CD8 T cells, MG132, resting or 15 min at 37°C on plates coated with CD137L, anti-CD3 or both (part left on ice); 1% Brij96 lysates; IP with anti-CD137 6B4 on magnetic microbeads against control IgG; tryptic digest, LC-MS/MS
[2] = biological target: CD137 (4-1BB), stably transfected in Jurkat cells (UniProt Q07011); test: affinity purification with mass spectrometry; CD137 stably transfected Jurkat cells, MG132, stimulated on CD137L-Fc-coated plates 15 min; 1% Brij96 lysates; IP with anti-CD137 6B4 on magnetic microbeads against control IgG; LC-MS/MS

The chains behind the UniProt entries cited, without tags or fusion partners. Residues count along the entry.
UniProt Q07011, residues 24-255: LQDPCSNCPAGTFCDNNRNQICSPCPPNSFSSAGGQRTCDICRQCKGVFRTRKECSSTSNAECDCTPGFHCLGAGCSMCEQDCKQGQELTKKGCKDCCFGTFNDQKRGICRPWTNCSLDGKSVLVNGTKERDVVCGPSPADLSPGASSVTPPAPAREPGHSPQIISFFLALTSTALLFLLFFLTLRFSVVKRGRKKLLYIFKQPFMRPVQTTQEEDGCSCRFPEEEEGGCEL
UniProt Q9BYM8: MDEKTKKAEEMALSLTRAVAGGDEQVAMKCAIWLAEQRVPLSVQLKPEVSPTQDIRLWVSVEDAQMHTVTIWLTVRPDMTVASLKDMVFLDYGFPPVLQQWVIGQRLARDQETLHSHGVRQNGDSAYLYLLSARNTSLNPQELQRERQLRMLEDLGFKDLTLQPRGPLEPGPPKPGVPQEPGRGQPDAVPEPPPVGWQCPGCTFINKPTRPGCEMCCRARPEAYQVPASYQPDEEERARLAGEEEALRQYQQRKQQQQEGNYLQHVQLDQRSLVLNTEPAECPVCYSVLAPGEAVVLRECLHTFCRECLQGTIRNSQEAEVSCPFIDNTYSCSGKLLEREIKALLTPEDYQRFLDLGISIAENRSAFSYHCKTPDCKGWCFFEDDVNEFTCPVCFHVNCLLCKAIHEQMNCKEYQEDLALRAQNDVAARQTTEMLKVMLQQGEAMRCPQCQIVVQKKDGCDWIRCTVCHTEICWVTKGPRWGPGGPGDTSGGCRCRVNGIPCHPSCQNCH
UniProt O00463: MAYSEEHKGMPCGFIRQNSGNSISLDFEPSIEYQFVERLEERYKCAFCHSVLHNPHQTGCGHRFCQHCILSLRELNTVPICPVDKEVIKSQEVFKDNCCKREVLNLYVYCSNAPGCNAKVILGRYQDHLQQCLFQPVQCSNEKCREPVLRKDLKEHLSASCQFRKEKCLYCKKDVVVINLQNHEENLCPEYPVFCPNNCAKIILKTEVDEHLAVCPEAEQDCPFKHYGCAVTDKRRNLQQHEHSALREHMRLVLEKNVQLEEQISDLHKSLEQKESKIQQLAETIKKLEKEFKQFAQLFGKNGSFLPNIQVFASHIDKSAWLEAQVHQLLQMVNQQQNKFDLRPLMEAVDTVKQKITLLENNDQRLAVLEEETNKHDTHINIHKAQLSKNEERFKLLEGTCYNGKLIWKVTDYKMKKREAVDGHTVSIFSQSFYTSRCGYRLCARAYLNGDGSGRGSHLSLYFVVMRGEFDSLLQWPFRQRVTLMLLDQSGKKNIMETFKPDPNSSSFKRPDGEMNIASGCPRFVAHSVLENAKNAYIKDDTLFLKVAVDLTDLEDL
UniProt Q96EP0: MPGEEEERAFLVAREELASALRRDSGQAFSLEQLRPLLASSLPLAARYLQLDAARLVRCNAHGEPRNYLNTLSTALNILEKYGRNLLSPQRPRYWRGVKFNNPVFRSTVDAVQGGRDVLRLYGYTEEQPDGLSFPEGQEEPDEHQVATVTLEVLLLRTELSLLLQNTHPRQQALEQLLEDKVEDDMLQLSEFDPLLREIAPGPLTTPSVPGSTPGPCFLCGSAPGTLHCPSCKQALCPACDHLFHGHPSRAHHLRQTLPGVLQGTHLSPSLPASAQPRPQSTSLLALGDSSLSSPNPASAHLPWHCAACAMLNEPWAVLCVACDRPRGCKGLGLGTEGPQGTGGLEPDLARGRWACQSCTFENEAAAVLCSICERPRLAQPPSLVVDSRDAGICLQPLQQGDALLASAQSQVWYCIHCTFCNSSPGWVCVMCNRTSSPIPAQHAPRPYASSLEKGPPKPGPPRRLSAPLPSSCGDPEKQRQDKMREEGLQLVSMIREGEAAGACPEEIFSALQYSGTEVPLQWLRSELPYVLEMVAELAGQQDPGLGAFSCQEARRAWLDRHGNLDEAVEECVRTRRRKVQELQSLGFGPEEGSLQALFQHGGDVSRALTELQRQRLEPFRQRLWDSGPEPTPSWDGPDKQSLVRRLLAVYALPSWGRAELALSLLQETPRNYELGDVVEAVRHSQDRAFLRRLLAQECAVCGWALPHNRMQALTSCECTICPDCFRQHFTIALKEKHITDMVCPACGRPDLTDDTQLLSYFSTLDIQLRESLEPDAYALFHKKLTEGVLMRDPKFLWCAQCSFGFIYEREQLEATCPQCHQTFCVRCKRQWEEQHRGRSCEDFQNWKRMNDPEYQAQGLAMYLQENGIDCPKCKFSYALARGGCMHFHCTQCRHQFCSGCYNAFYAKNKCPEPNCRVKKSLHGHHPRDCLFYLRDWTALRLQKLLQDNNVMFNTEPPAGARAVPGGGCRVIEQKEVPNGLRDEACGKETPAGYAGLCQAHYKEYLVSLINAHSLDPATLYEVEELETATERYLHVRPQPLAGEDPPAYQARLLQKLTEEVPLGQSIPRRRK
UniProt Q9Y6K9: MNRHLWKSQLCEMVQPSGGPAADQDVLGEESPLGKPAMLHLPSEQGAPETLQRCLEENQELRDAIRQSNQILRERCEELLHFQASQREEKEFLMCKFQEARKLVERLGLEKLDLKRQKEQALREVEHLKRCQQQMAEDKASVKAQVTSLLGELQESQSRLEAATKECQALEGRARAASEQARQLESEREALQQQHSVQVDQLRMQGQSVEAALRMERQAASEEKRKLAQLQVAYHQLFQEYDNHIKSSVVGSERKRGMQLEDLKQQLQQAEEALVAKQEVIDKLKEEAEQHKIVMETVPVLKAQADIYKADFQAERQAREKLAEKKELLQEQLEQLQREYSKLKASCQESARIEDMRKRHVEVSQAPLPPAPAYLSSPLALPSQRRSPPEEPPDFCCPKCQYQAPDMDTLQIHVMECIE
UniProt Q13114: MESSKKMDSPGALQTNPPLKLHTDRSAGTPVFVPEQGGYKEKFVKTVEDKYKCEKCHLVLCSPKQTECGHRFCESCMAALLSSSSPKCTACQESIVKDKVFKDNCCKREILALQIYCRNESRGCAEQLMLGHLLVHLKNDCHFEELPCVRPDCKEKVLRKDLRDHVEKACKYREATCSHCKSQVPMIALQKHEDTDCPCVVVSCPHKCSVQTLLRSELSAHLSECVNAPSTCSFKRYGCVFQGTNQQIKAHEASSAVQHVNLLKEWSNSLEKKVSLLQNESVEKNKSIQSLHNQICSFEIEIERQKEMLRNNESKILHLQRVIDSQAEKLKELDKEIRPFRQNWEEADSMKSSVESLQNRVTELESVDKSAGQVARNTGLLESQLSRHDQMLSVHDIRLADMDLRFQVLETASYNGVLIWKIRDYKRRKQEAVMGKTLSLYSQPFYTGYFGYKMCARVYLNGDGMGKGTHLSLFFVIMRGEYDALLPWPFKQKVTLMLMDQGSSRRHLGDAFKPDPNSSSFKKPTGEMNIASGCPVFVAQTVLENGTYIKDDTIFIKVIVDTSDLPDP

Substance | binding [1] | binding [2]
HOIL-1 (from UniProt Q9BYM8 1-510) | binds | 
TRAF5 (from UniProt O00463 1-557) | binds | binds
HOIP (from UniProt Q96EP0 1-1072) | binds | 
NEMO (from UniProt Q9Y6K9 1-419) | binds | 
TRAF3 (from UniProt Q13114 1-568) | binds | binds

Source: paper PMC11044178
